Source: PubChem BioAssay AID1508588 (Peter MacCallum Cancer Centre, 2020)
Purpose: 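Knock-downs boosting vemurafenib effects on melanoma cell growth or lactate release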 (primary screen). Cells: human WM266.4 melanoma cells (BRAF V600 mutant). Reagents: siRNA pool against human genes, 40 nM. Timing: 96 h from transfection to read-out. Challenge: vemurafenib 300 nM (about IC25), added 48 h after transfection, for 48 h; comparison arm got DMSO vehicle only. Measured: 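Cell gain (DAPI nuclei at end minus before drug, mean of two replicates) and medium lactate by absorbance per cell, both as ratio to non-targeting siRNA, also grouped into fold-change classes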. Direction: cell gain with vemurafenib: higher = more cell gain than with non-targeting siRNA; lactate per cell with vemurafenib: higher = more lactate made per cell. Active means: 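Enhancement is called by pairing each knock-down's vehicle-arm and drug-arm fold-change classes for viability or glycolysis; which class combinations qualify is not given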. Calls: active = enhances vemurafenib effect; inactive = no enhancement seen.
The whole screen tested about 18,000 reagents; below is an unselected part. 790 of them (4.4%) were called active. 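Calls rest on a combination of fold-change classes in drug and vehicle arms, not all shown here.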 A reagent listed more than once was tested more than once; the source does not tell the runs apart.

Gene	cell gain with vemurafenib	lactate per cell with vemurafenib	outcome
RAB29	0.62	0.76	inactive
CCR2	0.9	0.38	inactive
TMEM192	0.67	0.42	inactive
TSPYL5	0.59	0.53	inactive
AFDN	0.27	1.42	inactive
CCL27	0.63	0.54	inactive
VCX2	0.51	0.54	inactive
GPANK1	0.36	1.48	inactive
KIF11	0	2.62	inactive
OR8K3	-0.02	2.31	inactive
GTF2H2	0.71	1.02	inactive
TTN	0.4	1.32	inactive
SOHLH2	0.92	0.94	inactive
SIAH2	0.89	1.12	inactive
CDH26	0.23	1.14	inactive
NECTIN1	0.9	0.94	inactive
ANKRD9	1.11	1.16	inactive
ASB11	0.97	0.78	inactive
MYG1	0.46	1.52	inactive
DLX3	0.84	0.6	inactive
TSBP1	0.21	0.94	inactive
MCF2	0.63	0.84	inactive
TFDP2	0.41	1.54	inactive
TYW2	0.95	0.8	inactive
UBE2H	0.21	1.66	inactive
DEFB106B	0.63	1.18	inactive
WIPF3	0.51	0.53	inactive
KBTBD8	0.51	1.7	inactive
NDUFB4	0.35	2.4	inactive
ARIH1	0.3	0.18	active
ARIH1	0.69	0.73	active
FAM89B	0.26	0.72	inactive
AMT	0.49	0.34	inactive
PPEF2	0.57	2.17	inactive
PRCP	0.92	0.88	inactive
FAM111A	0.23	1.65	inactive
SPECC1	0.83	1.27	inactive
SLC25A27	0.34	0.84	inactive
H2BC5	0.54	1.02	inactive
QKI	0.35	1.04	inactive
CDR1	0.73	0.88	inactive
LPCAT1	0.23	0.92	inactive
GCSAM	1.07	1.07	inactive
TFAP4	0.67	0.98	inactive
CSF1	0.74	1.07	inactive
AVPI1	0.75	0.55	inactive
MAP6D1	-0.07	0.27	inactive
FOLR1	0.23	1.45	inactive
PFDN4	0.96	0.59	inactive
GAGE2C	0.56	0.9	inactive
PLEKHH2	0.52	0.75	inactive
OR4S2	0.13	1.09	inactive
SNX10	0.62	1.61	inactive
AKAP11	0.22	0.03	inactive
FAM153B	1.07	0.88	inactive
OR2L13	0.74	0.8	inactive
SPRY3	0.6	1.07	inactive
S100A11	0.6	0.98	inactive
TCP10L3	0.62	1.45	inactive
CT47A3	0.91	0.46	inactive
IFT25	0.53	1.06	inactive
ARPP21	1.07	0.8	inactive

14 entries from above, reformatted:
{"Gene":"GCSAM","cell gain with vemurafenib":1.07,"lactate per cell with vemurafenib":1.07,"outcome":"inactive"}
{"Gene":"TFAP4","cell gain with vemurafenib":0.67,"lactate per cell with vemurafenib":0.98,"outcome":"inactive"}
{"Gene":"CSF1","cell gain with vemurafenib":0.74,"lactate per cell with vemurafenib":1.07,"outcome":"inactive"}
{"Gene":"AVPI1","cell gain with vemurafenib":0.75,"lactate per cell with vemurafenib":0.55,"outcome":"inactive"}
{"Gene":"MAP6D1","cell gain with vemurafenib":-0.07,"lactate per cell with vemurafenib":0.27,"outcome":"inactive"}
{"Gene":"FOLR1","cell gain with vemurafenib":0.23,"lactate per cell with vemurafenib":1.45,"outcome":"inactive"}
{"Gene":"PFDN4","cell gain with vemurafenib":0.96,"lactate per cell with vemurafenib":0.59,"outcome":"inactive"}
{"Gene":"GAGE2C","cell gain with vemurafenib":0.56,"lactate per cell with vemurafenib":0.9,"outcome":"inactive"}
{"Gene":"PLEKHH2","cell gain with vemurafenib":0.52,"lactate per cell with vemurafenib":0.75,"outcome":"inactive"}
{"Gene":"OR4S2","cell gain with vemurafenib":0.13,"lactate per cell with vemurafenib":1.09,"outcome":"inactive"}
{"Gene":"SNX10","cell gain with vemurafenib":0.62,"lactate per cell with vemurafenib":1.61,"outcome":"inactive"}
{"Gene":"AKAP11","cell gain with vemurafenib":0.22,"lactate per cell with vemurafenib":0.03,"outcome":"inactive"}
{"Gene":"FAM153B","cell gain with vemurafenib":1.07,"lactate per cell with vemurafenib":0.88,"outcome":"inactive"}
{"Gene":"OR2L13","cell gain with vemurafenib":0.74,"lactate per cell with vemurafenib":0.8,"outcome":"inactive"}

Next results follow.
Gene	cell gain with vemurafenib	lactate per cell with vemurafenib	outcome
ZNF33B	0.5	1.14	inactive
CLEC4M	0.79	0.82	inactive
PCYOX1L	0.35	1.21	inactive
FAM151A	0.15	3.05	inactive
KLK3	-0.05	1.3	inactive
SIMC1	0.61	1.12	inactive
MYCBPAP	0.13	1.27	inactive
NOTCH4	0.66	0.7	inactive
PPP1R10	0.51	1.76	inactive
FGFR1	0.38	0.3	inactive
CASP14	0.71	0.92	inactive
MAPKAPK3	0.85	0.76	inactive
BPY2	0.9	0.56	inactive
LIPA	0.87	0.98	inactive
WDR33	1	0.67	inactive
RNF115	0.73	0.6	inactive
KRTAP10-5	0.62	0.29	inactive
UTY	0.62	-0.02	inactive
MYL3	0.47	1.79	inactive
ARHGEF17	0.65	0.99	inactive
OR6N1	0	2.11	inactive
CHSY3	0.51	1.55	inactive
PIP	0.52	1.15	inactive
SIGMAR1	0.27	1.04	inactive
CLDN16	0.82	0.5	inactive
LDB2	0.76	0.56	inactive
MUCL3	-0.04	1.55	inactive
ZNF707	0.81	1.05	inactive
FRMD4A	0.62	0.63	inactive
PLBD2	0	0	inactive
KISS1R	0.76	0.95	inactive
FAM161A	0.84	0.52	inactive
NDOR1	0.86	0.68	inactive
MAEA	0.59	0.91	inactive
RPE	0.83	0.98	inactive
FBXO16	0.6	0.73	inactive
P2RY13	0.68	0.28	active
MMUT	0.91	0.48	inactive
AKT3	0.33	1.6	inactive
CYTH3	0.43	1.8	inactive
SNX13	0.35	0.6	inactive
TGFBR1	1.21	0.74	inactive
SLC18A1	0.61	1.19	inactive
PRCD	0.96	1.18	inactive
SH3D19	0.4	0.95	inactive
